Measured values from the supplement of paper PMC4683952.
The other results are listed elsewhere or left out. No stated cut-off is given here; in the data, active = 2 or more and inactive = the rest. This data set is noisy: repeats of one test often differ as much as different tests do.

System: Lgr5 (MarsCy1-Lgr5-EGFP, U2OS)
Assay: cell-surface Lgr5 expression (SCi1 fluorescence, background-subtracted) relative to WT DMSO (fold of DMSO control); higher = more Lgr5 at the plasma membrane
Details: U2OS MarsCy1-Lgr5-EGFP stable; treatment time: overnight; library: ActiProbe-5K (TimTec); 25 µM

SMILES	cell-surface Lgr5 expression
Cc1nnc(SCC(=O)Nc2nccs2)[nH]c1=O	inactive: 0.975
CC(NC(=O)c1cc(=O)n(C)c(=O)n1C)C12CC3CC(CC(C3)C1)C2 (centres undefined)	inactive: 1.37
O=c1nc(O)c2sc3nc4c(c(C(F)F)c3c2[nH]1)CCCC4	inactive: 1.48
CC1=C(C#N)C(NC(=O)c2ccco2)(C(F)(F)F)C(=O)N1 (centres undefined)	inactive: 1.22
NC(=S)N/N=C\c1c2ccccc2cc2ccccc12	inactive: 1.48
CN1CCN(CC(=O)N2CCCC2=O)CC1	inactive: 1.43
CS(=O)(=O)Nc1ccc(Br)cc1	inactive: 1.14
Cc1[nH]c(=O)c(C#N)c(C)c1[N+](=O)[O-]	inactive: 1.14
CC(C)C(C1=C(O)CC(C)(C)CC1=O)C1C(=O)CC(C)(C)CC1=O (centres undefined)	inactive: 1.28
c1ccc2c(C3Nc4cccc5cccc(c45)N3)cccc2c1	inactive: 0.978
Clc1nc(NCc2ccco2)nc(NC2CCCCC2)n1	inactive: 1.22
CC(C)(C)NC(=O)CSc1nnnn1C(C)(C)C	inactive: 1.39
Cn1c(=O)c2c(nc(Sc3ncn[nH]3)n2C)n(C)c1=O	inactive: 1.15
O=S(=O)(Nc1ccc(F)c(Cl)c1)c1ccc(Cl)cc1	inactive: 1.12
O=S(=O)(c1ccc(F)c2ccccc12)N1CCOc2ccccc21	inactive: 1.38
c1ccc(-c2cn3nc4c(nc3n2)[nH]c2ccccc24)cc1	inactive: 1.15
Cc1ccc(C(=O)NN(C)C)o1	inactive: 1.07
CNC(=S)Nc1ccc2c(c1)CCCC2	inactive: 1.1
Cc1ccsc1/C=N/n1c(S)nnc1-c1ccco1	inactive: 1.19
Cc1nn(Cc2nc(-c3cccs3)no2)c(C)c1Br	inactive: 0.923
Cc1cc(=S)n(-c2ccccc2)n1C	inactive: 1.33
CSc1ccc(/C=N/c2ccccn2)cc1	inactive: 1.01

SMILES	cell-surface Lgr5 expression
O=C(CCCCCC(=O)N/N=C1\CC2CC=CC12)N/N=C1\CC2CC=CC12 (centres undefined)	inactive: 1.1
CCCc1ccn(CCSCC)c1-c1cccs1	inactive: 1.35
CN(C)/C=N\CCCn1c(N2CCCCC2)nc2c1c(=O)n(C)c(=O)n2C	inactive: 1.26
Cc1n[nH]c2c1C(c1cc(Br)c(C)s1)C(C#N)=C(N)O2 (centres undefined)	inactive: 1.53
Cc1ccc(C2C3CCCC=C3C(C#N)C(N)C2(C#N)C#N)s1 (centres undefined)	inactive: 1.1
COC(=O)C12CC3CC(CC(C(=O)OC)(C1)C3=O)C2=O	inactive: 1.23
CCCCO/N=C(\Nc1nc(C)cc(C)n1)NS(=O)(=O)c1ncn[nH]1	inactive: 1.17
COC(=O)c1nn[nH]c1Cl	inactive: 1.01
Brc1ccc(C2OCC3(CO2)CC2C=CC3C2)cc1 (centres undefined)	inactive: 1
CN(C)c1nc(N)nc(C2CCCN2S(=O)(=O)c2ccc3ccccc3c2)n1 (centres undefined)	inactive: 1.27
O=c1cc2ncc(-c3n[nH]cc3[N+](=O)[O-])cn2[nH]1	inactive: 1.03
O=c1cc2ncc(-n3cc([N+](=O)[O-])cn3)cn2[nH]1	inactive: 1.08
CN(C)c1ccc(Br)c2ccccc12	inactive: 0.978
O=C(O)CSc1n[nH]c(=O)[nH]c1=O	inactive: 1.09
Cc1nc(O)nc(O)c1N(C)C	inactive: 1.06
Cn1c(COc2ccccc2Br)nc2ccccc21	inactive: 0.989
NN(CCc1ccccn1)C1=NS(=O)(=O)c2ccccc21	inactive: 0.967
S=C(NC1CCCCC1)N1CCOCC1	inactive: 1.1
CC(C)(C)S(=O)(=O)c1ccc(Br)cc1	inactive: 1.45
O=C1NC(=S)S/C1=C/c1ccc(-c2ccc3c(c2)C(=O)C2C=CC=CC2C3=O)o1 (centres undefined)	inactive: 1.29
FC(F)(F)c1ccc(/C=N\n2c(S)nnc2-c2ccccc2)cc1	inactive: 1.09
C(N1c2c(cccc2)CC1)(/N=C(\N)N)=N.Cl	inactive: 1.01

SMILES	cell-surface Lgr5 expression
CCCCCCCCCCCCCCCCCC(=O)NC1CC(C)CC(C)(C)C1 (centres undefined)	inactive: 1.31
Sc1nnnn1-c1ccccc1	inactive: 1.49
CN(c1nc2ccccn2c(=O)c1/C=C1/SC(=S)N(CC2CCCO2)C1=O)C1CCCCC1 (centres undefined)	inactive: 1.05
Cl.NC1(COc2ccc(F)cc2)CC1	inactive: 1.27
COc1ccc2c(c1OC)C(=O)N1c3ccccc3C(=O)OC21 (centres undefined)	inactive: 0.977
COc1ccc(-c2ccc3cc(OC)c(OC)cc3c2O)cc1OC	inactive: 1.03
Cc1ccc(C2=NNC(c3ccc(F)cc3)S2)cc1 (centres undefined)	inactive: 0.975
CCCCCCCCSc1ncn[nH]1	inactive: 0.893
Clc1nc(Cl)c2[nH]cnc2n1	inactive: 1.24
Clc1ccc(Cl)c(N/N=C/c2ccccn2)c1	inactive: 1.27
CSc1nnc(COc2ccccc2)n1C	inactive: 1.22
C(=N/C(/N=C/c1cccs1)c1cccs1)/c1cccs1 (centres undefined)	inactive: 1.09
[O-]c1n[n+](-c2ccc(Cl)cc2)no1	inactive: 1.09
C1=CC2CC1CC2CN1CCN(C2CCC(c3ccccc3)CC2)CC1 (centres undefined)	inactive: 1.09
Clc1ccc(C2Oc3ccccc3C3=C2C(c2ccc(Cl)cc2)n2ncnc2N3)cc1 (centres undefined)	inactive: 1.64
CCSC1=C(C#N)C(=N)n2c1cc1c2CCCC1	inactive: 1.05
Clc1nc2ccccc2cc1/C=N/Nc1nc2ccccc2nc1Cl	inactive: 1.19
O=S(=O)(c1ccc2c(c1)oc1ccccc12)N1CCOCC1	inactive: 1.01
S=C1NC2(CCCCCCC2)NN1c1ccc(Cl)cc1	inactive: 1.02
O=C(CCCCC(=O)NCCC1=CCCCC1)NCCC1=CCCCC1	inactive: 0.935
c1ccc(/N=C(/Nc2ccccc2)N2CCOCC2)cc1	inactive: 1.43
CCc1sc(C2C(C#N)=C(N)Oc3[nH]nc(C)c32)cc1Br (centres undefined)	inactive: 1.12

SMILES	cell-surface Lgr5 expression
CSc1nsc(SC)c1CNC(=O)c1ccn(C(F)F)n1	inactive: 1.03
C(=N/c1ccccc1/N=C\c1c[nH]c2ccccc12)/c1c[nH]c2ccccc12	inactive: 1.1
C(=C/c1nn2cnnc2s1)/c1ccccc1	inactive: 1.17
CN(C)S(=O)(=O)Nc1ccc(Oc2ccc3c(c2)OCO3)cc1	inactive: 1.11
OCCC1CNCCN1CC1CCCCC1 (centres undefined)	inactive: 1.21
CCOc1ccc(-n2sc3c(c2=S)-c2ccc(OC)cc2NC3(C)C)cc1	inactive: 0.723
O=S(=O)(NC1CCCCCC1)c1ccc(Cl)cc1	inactive: 1.34
O=C(CCCCC(=O)NNC(=O)C1CCCCC1)NNC(=O)C1CCCCC1	inactive: 0.958
Cc1cc(S(=O)(=O)NC2CCCCC2)c(C)s1	inactive: 1.21
N#CCSc1n[nH]c(=O)[nH]c1=O	inactive: 1.1
CSc1ccc(C(C)=O)s1	inactive: 1.07
CCCCCCCCCn1c[n+](CCCCCCCCC)c2cc(C)c(C)cc21.[Br-]	inactive: 0.716
CCNC(=O)n1cc(Cl)cn1	inactive: 1.08
CC(C)(C)C(=O)CSc1nnc(-c2cccs2)o1	inactive: 0.983
Sc1nnc(C2CCCCC2)n1/N=C\c1c[nH]c2ccccc12	inactive: 0.608
NCCCCCCNc1nc2c(=O)[nH]cnc2n1C1OC(CO)C(O)C1O (centres undefined)	inactive: 0.825
Oc1c(Br)cc(Br)cc1/C=N\c1ccccn1	inactive: 0.999
CN(/N=C\c1ccccc1F)C1=NS(=O)(=O)c2ccccc21	inactive: 1.71
CN(CC/C(N)=N/O)C(=O)c1ccco1	inactive: 1.14
CC(=O)Nc1nc(CSCc2n[nH]c(=O)[nH]2)cs1	inactive: 1.05
[Br-].c1ccc(Cc2ccc[n+](Cc3ccccn3)c2)cc1	inactive: 1.13
O=c1[nH]cnc2cc3c(=O)[nH]cnc3cc12	inactive: 1.21

SMILES	cell-surface Lgr5 expression
Cc1noc2c1C(c1ccsc1)C(C#N)=C(N)N2 (centres undefined)	inactive: 1.63
O=C(NCCN1CCOCC1)C12CC3CC(CC(C3)C1)C2	inactive: 1.33
Oc1nc(S)nc2ccccc12	inactive: 1.05
CCc1nnc(CC)n1N	inactive: 1.33
Nc1nnc(C2CCCCC2)s1	inactive: 1.23
CCCCC(CC)C(=O)N1CC(C)OC(C)C1 (centres undefined)	inactive: 1.08
CCOC(=O)c1[nH]c(C)c(C(C)=O)c1C	inactive: 1.51
NCc1nc2cc(Cl)ccc2[nH]1	inactive: 1.18
O=c1[nH]c2ccccc2s1	inactive: 1.37
O=S(=O)(c1ccccc1)c1ccsc1	inactive: 1.29
C=CCC1(CC=C)CCN1C(=O)c1cnc(SC)nc1	inactive: 0.882
Nc1ccc(/N=N\c2ccc(N(CCO)CCO)cc2)cc1	inactive: 0.878
COc1ccc(N/C(=N/C#N)SC)cc1	inactive: 0.925
Cn1ncc(Cl)c1-c1nc(-c2nonc2N)no1	inactive: 1.1
CCC1CCC2(CC1)C(C#N)=C(N)OC1=C2C(=O)CC(C)(C)C1 (centres undefined)	inactive: 1.14
O=C(CSc1n[nH]c(=O)n1-c1ccccc1)c1ccccn1	inactive: 1.26
C/C(=N\NC(=O)c1ccoc1C)C(C)(C)C	inactive: 1.31
O=C(CCCCCCCC(=O)Nc1nccs1)Nc1nccs1	inactive: 1.01
Cc1nn(CC(=O)N2CCN3CCCC3C2)cc1Cl (centres undefined)	inactive: 0.97
CCc1[nH]nc2c1C1(CCOCC1)C(C#N)=C(N)O2	inactive: 1.09
O=C(O)c1nn(C23CC4CC(CC(C4)C2)C3)cc1[N+](=O)[O-]	inactive: 1.03
